Reference: patent US9670255B2 (priority 2013, dated 2017)
At least one compound was matched to its structure with a doubt left.

System: purified mutant protein (mutant streptavidin LISA314 N45 N128)
Test: Competitive analysis with Biotin-HRP label
Type: binding, Streptomyces avidinii
Details: 10 μM compound, then 12.5 nM Biotin-HRP label; mutant protein on ELISA plate

`O=C(O)CCCC[C@@H]1SCC2OC(=O)O[C@@H]21` (stereo partly shown) [Compound 11] was tested, and the “Competition with Biotin-HRP label (level of color development)” value was “competed with the label”.
